Data from paper PMC12046912.
Results are given in words; binding and its absence hold for the method and conditions named. In cells and extracts the contact can be indirect. Some binding calls cover weakened binding; strength is not graded here.

Biological target: T1, CD109 (Cluster of Differentiation 109) (human (endogenous in A431 and SCC9)), Q6YHK3
T1 chain: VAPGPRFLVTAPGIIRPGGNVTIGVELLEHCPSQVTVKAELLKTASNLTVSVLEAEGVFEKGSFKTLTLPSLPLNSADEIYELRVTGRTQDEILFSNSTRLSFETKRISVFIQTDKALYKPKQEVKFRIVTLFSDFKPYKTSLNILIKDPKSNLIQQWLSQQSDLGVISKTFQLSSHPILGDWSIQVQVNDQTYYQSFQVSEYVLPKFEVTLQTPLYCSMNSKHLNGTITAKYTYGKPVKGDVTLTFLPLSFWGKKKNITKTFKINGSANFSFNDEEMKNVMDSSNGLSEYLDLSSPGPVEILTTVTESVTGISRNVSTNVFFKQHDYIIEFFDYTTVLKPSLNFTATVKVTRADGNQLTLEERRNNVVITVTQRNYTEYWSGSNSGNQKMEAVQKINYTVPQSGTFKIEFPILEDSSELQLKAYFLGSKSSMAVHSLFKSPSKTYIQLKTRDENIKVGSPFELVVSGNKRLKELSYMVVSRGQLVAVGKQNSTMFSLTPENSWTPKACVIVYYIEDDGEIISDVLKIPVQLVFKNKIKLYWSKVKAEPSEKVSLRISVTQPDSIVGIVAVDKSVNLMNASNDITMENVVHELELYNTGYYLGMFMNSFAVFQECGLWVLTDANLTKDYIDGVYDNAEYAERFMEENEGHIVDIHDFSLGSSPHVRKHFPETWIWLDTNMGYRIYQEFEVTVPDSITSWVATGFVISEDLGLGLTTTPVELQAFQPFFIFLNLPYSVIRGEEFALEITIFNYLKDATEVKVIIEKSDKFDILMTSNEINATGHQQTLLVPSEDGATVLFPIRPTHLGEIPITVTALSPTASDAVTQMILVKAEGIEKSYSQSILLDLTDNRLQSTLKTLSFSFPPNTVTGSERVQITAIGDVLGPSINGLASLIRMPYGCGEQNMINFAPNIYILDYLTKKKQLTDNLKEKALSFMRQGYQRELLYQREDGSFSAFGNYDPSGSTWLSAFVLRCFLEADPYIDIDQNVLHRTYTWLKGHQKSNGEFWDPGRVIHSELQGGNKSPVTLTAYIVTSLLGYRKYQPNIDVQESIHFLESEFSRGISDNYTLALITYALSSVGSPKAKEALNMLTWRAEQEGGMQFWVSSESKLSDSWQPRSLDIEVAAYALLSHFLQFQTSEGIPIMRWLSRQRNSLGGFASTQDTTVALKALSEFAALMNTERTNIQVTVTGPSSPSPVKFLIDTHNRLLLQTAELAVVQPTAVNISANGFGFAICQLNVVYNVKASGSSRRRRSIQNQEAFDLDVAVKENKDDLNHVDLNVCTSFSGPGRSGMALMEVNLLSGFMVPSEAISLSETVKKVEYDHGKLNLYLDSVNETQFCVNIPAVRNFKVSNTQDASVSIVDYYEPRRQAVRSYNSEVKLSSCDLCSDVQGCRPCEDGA
Experiment: co-IP; endogenous proteins in total cell lysates (Pierce IP Lysis Buffer); 500 μg protein with 2.5 μg/ml antibody (anti-CD109, anti-IL6Rα, anti-STAT3 or anti-NRF2) overnight at 4 °C, Protein G magnetic beads, Western blot; control IgG; cells without or with 20 ng/ml IL-6 (25 min by the methods; overnight for STAT3-NRF2 by the legend of Fig. 7A)
Details: remark: other sources report otherwise

B1: Glycoprotein 130, P40189 23-918 (receptor)
chain: ELLDPCGYISPESPVVQLHSNFTAVCVLKEKCMDYFHVNANYIVWKTNHFTIPKEQYTIINRTASSVTFTDIASLNIQLTCNILTFGQLEQNVYGITIISGLPPEKPKNLSCIVNEGKKMRCEWDGGRETHLETNFTLKSEWATHKFADCKAKRDTPTSCTVDYSTVYFVNIEVWVEAENALGKVTSDHINFDPVYKVKPNPPHNLSVINSEELSSILKLTWTNPSIKSVIILKYNIQYRTKDASTWSQIPPEDTASTRSSFTVQDLKPFTEYVFRIRCMKEDGKGYWSDWSEEASGITYEDRPSKAPSFWYKIDPSHTQGYRTVQLVWKTLPPFEANGKILDYEVTLTRWKSHLQNYTVNATKLTVNLTNDRYLATLTVRNLVGKSDAAVLTIPACDFQATHPVMDLKAFPKDNMLWVEWTTPRESVKKYILEWCVLSDKAPCITDWQQEDGTVHRTYLRGNLAESKCYLITVTPVYADGPGSPESIKAYLKQAPPSKGPTVRTKKVGKNEAVLEWDQLPVDVQNGFIRNYTIFYRTIIGNETAVNVDSSHTEYTLSSLTSDTLYMVRMAAYTDEGGKDGPEFTFTTPKFAQGEIEAIVVPVCLAFLLTTLLGVLFCFNKRDLIKKHIWPNVPDPSKSHIAQWSPHTPPRHNFNSKDQMYSDGNFTDVSVVEIEANDKKPFPEDLKSLDLFKKEKINTEGHSSGIGGSSCMSSSRPSISSSDENESSQNTSSTVQYSTVVHSGYRHQVPSVQVFSRSESTQPLLDSEERPEDLQLVDHVDGGDGILPRQQYFKQNCSQHESSPDISHFERSKQVSSVNEEDFVRLKQQISDHISQSCGSGQMKMFQEVSAADAFGPGTEGQVERFETVGMEAATDEGMPKSYLPQTVRQGGYMPQ
  binding: binds
